Laboratory results: paper doi:10.1101/2021.06.07.447311
No constants are given. Whether binding was seen depends on the method and setting. Binding can be weak; no strength is given. For some assays here: Binding seen in cells or lysates may run through a third protein.

B1: amyloid protein TasA of Bacillus subtilis (protein, UniProt P54507 28-261)
chain: AFNDIKSKDATFASGTLDLSAKENSASVNLSNLKPGDKLTKDFQFENNGSLAIKEVLMALNYGDFKANGGSNTSPEDFLSQFEVTLLTVGKEGGNGYPKNIILDDANLKDLYLMSAKNDAAAAEKIKKQIDPKFLNASGKVNVATIDGKTAPEYDGVPKTPTDFDQVQMEIQFKDDKTKDEKGLMVQNKYQGNSIKLQFSFEATQWNGLTIKKDHTDKDGYVKENEKAHSEDKN

Columns and labels:
[1] = target: T1, amyloid protein TasA of Bacillus subtilis (B. subtilis) (UniProt P54507); test: pull-down
T1 sequence: B1 chain

[2] = target: oleosin 1 from Arabidopsis thaliana (Arabidopsis thaliana); test: far-Western, overlay or dot blot

| Molecule | binding [1] | binding [2] |
| --- | --- | --- |
| oleosin from melon seeds | binds | – |
| B1 | – | binds |
